Measurements: EP4424327A1, “METHOD OR AGENT WITH HDAC REGULATOR, FOR TREATMENT OF DIABETES AND COMPLICATIONS” (Biozipcode, Inc., priority 2021, dated 2023)
At least one compound was matched to its structure with a doubt left. Some entries repeat one wording, which the source may state once for all of them.

Assay: Treatment of diabetes mellitus with other HDAC regulators instead of givinostat (Example 7)
Format: in vivo
Details: used instead of givinostat; model and dose not stated

Row | Compound | diabetes mellitus outcome
1 | C/C=C1\NC(=O)[C@H]2CSSCC/C=C/[C@H](CC(=O)N[C@H](C(C)C)C(=O)N2)OC(=O)[C@H](C(C)C)NC1=O [romidepsin] | similarly cured
2 | CCCC(CCC)C(=O)O [valproate] | similarly cured
